Measurements from publication doi:10.1101/2025.10.24.684417.
These are yes or no findings as the source states them, for the method shown. Binding seen in cells or lysates may run through a third protein. Some entries that bind do so weakly or less than the wild type.

Sequences of proteins named here, by UniProt entry; tags and fusion partners are left off.
UniProt Q13761: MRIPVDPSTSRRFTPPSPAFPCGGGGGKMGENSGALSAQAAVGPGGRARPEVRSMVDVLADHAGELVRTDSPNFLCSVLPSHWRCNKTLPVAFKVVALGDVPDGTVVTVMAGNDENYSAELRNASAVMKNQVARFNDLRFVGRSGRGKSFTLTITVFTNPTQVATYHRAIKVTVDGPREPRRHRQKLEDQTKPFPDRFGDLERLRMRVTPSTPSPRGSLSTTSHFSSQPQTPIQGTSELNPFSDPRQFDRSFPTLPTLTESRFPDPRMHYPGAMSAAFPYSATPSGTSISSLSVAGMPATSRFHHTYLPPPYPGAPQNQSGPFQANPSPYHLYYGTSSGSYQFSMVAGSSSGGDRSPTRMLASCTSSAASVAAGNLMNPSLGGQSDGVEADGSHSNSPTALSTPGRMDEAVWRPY
UniProt Q04724: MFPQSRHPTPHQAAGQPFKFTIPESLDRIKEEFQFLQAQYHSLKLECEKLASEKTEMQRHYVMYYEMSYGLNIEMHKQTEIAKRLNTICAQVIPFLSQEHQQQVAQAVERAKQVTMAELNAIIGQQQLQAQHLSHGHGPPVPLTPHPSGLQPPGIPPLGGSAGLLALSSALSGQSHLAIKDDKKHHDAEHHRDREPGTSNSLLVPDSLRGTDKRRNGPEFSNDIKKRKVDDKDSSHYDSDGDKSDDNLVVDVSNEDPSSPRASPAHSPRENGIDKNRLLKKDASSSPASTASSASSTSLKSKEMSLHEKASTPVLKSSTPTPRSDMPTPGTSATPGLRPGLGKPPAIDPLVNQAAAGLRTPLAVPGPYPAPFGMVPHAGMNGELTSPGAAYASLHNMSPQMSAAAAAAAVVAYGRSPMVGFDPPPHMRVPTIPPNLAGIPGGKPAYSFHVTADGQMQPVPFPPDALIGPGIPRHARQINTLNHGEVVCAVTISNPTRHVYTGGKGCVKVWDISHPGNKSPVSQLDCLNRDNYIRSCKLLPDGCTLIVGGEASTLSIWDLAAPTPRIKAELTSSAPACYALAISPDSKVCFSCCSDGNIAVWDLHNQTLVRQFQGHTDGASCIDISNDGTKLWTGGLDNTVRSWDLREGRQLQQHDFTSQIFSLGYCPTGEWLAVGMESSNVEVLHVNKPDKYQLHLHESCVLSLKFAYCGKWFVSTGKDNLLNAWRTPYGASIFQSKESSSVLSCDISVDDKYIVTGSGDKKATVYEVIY
UniProt Q04726: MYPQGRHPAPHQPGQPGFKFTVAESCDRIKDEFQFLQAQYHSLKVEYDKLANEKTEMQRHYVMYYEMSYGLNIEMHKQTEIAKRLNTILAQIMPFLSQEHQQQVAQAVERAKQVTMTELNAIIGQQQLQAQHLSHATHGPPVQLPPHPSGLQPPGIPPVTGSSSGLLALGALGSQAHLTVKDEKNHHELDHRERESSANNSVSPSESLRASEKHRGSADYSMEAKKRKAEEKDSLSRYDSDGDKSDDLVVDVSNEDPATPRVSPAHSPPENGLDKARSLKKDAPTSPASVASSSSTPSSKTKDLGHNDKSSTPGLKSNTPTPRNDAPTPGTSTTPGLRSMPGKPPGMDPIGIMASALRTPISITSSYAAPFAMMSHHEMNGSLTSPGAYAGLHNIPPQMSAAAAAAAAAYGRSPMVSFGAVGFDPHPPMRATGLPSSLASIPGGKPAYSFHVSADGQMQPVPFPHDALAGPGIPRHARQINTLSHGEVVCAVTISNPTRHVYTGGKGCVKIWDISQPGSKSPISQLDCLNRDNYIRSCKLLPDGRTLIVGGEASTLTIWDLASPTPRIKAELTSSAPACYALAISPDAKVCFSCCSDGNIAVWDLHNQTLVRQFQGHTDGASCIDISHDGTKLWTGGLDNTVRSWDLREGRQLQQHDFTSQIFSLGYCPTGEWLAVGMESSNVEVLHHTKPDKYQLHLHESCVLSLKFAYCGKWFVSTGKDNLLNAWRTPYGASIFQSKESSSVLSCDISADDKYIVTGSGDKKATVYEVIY

Molecular target: RUNX3 (as detected in the proximity ligation assays) (UniProt Q13761)
Test: proximity ligation

TLE1 (from UniProt Q04724 1-770)
binding: binds

TLE3 (from UniProt Q04726 1-772)
binding: binds
